{"source": "patent US20200297798A1", "about": "“KEY AMINO ACID SITES […] EXPORT OF NUC[…] INFLUENZA A AND B VIRUSES AND USE THEREOF AS ANTI-INFLUENZA VIRUS DRUG TARGETS” (INSTITUTE OF MICROBIOLOGY, CHINESE ACADEMY OF SCIENCES, priority 2017, published 2020)", "key": {"[1]": {"system": "nuclear export of BNP"}, "[2]": {"system": "nuclear export of ANP"}}}
{"smiles": "COc1ccc2cc(C(C)C(=O)O)ccc2c1", "note": "(stereo not drawn) [naproxen, (+) α-methyl-6-methoxy-2-naphthaleneacetic acid]", "values": [{"measurement": "cell localization of BNP", "setting": "[1]", "result": "localized mainly in the nucleus"}, {"measurement": "cell localization of ANP", "setting": "[2]", "result": "localized mainly in the nucleus"}]}
